No constants are given. Whether binding was seen depends on the method and setting. Binding seen in cells or lysates may run through a third protein. Some results given as binding are weak or reduced against the parent protein; the word gives no strength. Sequences can lack the tags named with a protein.

Chains of the proteins cited; added tags and fusions are not shown. Residues count along the entry.
UniProt Q5HYA8, residues 37-995: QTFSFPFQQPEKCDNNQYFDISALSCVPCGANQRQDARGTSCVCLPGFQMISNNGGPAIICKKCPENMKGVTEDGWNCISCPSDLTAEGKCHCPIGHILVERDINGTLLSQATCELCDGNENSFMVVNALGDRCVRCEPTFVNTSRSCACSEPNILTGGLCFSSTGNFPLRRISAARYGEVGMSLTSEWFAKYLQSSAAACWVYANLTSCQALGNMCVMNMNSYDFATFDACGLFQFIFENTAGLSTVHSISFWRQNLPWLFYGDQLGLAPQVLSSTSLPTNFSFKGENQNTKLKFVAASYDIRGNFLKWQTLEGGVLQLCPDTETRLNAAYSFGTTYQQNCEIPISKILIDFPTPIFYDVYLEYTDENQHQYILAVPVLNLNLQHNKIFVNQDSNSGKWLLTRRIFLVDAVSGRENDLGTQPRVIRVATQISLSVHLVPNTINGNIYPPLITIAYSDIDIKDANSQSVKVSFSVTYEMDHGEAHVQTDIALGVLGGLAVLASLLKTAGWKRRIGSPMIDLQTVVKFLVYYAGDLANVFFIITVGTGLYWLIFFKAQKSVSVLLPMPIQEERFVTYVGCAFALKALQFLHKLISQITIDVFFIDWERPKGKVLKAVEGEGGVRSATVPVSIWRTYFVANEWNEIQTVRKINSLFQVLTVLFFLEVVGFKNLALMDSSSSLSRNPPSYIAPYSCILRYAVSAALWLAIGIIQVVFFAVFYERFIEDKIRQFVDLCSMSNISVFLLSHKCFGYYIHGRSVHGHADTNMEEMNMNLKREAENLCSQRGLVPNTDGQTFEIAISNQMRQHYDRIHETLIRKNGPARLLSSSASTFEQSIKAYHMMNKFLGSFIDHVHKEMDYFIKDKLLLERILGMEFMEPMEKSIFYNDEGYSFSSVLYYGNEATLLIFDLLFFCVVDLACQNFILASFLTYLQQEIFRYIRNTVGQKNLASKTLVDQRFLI

Assay in all cases: co-IP; FLAG-tagged and V5-tagged proteins coexpressed in HEK293T cells (calcium phosphate, 24 h); lysis in 1% Triton X-100, 20 mM Tris pH 7.5, 50 mM NaCl, 50 mM NaF, 15 mM Na4P2O7, 0.1 mM EDTA; anti-FLAG M2 agarose beads 2 h; Western blot with anti-V5 and anti-FLAG
The target in assay [1] is T1, FLAG-tagged NME3 (NME/NM23 nucleoside-diphosphate kinase 3), wild type (human) (UniProt Q13232).
T1 sequence: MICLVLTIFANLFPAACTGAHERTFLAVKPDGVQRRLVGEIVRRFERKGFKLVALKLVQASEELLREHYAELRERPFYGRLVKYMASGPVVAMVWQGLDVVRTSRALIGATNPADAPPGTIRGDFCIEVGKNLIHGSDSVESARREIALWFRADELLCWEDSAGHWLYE

Assay [2] has as its target T2, FLAG-tagged NEK8 (NIMA-related kinase 8) (UniProt Q86SG6).
T2 sequence: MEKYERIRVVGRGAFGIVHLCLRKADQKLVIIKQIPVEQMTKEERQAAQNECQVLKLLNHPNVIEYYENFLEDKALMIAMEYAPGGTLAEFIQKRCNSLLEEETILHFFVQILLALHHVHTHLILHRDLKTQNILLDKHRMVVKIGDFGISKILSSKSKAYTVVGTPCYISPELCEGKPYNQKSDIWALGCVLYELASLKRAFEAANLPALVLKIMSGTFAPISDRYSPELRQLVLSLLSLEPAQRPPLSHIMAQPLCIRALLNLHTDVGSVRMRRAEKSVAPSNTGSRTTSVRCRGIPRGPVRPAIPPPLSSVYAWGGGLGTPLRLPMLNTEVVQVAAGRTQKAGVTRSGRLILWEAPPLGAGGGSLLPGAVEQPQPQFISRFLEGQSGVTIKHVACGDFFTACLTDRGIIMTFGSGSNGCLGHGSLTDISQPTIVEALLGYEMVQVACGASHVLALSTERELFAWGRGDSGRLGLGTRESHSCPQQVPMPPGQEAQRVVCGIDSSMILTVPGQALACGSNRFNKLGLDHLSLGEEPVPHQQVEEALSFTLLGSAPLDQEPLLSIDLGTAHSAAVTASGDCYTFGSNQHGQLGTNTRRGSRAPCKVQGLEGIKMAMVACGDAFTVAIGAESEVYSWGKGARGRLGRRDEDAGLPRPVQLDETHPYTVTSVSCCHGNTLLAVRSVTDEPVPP

The target of a further assay is T3, FLAG-tagged NPHP4 (UniProt O75161).
T3 sequence: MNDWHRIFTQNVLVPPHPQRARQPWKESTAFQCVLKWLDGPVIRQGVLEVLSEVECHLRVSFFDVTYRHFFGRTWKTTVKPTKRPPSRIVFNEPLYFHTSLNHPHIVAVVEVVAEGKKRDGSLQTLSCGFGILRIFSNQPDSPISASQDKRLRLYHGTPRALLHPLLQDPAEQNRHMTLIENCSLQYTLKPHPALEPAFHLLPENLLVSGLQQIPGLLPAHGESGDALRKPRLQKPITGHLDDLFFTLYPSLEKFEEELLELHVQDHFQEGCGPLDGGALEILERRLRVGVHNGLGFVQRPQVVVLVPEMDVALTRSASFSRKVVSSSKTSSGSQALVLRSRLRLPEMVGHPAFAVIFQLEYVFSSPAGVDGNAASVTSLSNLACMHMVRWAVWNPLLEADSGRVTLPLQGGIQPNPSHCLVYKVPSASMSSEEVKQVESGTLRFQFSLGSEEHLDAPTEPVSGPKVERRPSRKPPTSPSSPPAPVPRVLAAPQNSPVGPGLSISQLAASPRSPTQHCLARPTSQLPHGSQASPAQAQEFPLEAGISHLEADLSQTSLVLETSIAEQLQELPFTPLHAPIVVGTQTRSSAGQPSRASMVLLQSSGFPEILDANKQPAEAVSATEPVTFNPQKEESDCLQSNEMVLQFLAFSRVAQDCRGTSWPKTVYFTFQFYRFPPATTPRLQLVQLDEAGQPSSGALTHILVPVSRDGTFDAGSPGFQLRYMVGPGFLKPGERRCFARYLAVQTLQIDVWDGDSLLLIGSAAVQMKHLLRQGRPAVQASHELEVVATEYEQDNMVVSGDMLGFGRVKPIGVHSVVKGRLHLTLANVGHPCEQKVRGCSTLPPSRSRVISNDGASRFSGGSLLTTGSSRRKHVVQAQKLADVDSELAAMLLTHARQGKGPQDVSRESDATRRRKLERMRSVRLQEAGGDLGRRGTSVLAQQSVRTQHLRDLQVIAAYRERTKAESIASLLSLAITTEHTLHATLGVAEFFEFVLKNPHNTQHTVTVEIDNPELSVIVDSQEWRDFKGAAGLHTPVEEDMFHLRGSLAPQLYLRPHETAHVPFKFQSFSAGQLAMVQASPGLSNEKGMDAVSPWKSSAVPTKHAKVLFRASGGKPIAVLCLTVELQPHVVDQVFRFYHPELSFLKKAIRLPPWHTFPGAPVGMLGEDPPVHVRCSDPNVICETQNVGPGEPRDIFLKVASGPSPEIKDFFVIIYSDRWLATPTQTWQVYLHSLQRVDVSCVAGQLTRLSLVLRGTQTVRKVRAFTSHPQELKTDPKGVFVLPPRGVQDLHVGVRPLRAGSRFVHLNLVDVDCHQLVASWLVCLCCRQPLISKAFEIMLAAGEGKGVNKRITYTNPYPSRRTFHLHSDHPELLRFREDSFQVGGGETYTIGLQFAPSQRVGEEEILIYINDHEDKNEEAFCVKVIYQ

The target of another assay is TMEM67 (UniProt Q5HYA8).

B1: V5-tagged ANKS6 (ankyrin repeat and sterile alpha motif domain-containing 6) (protein, UniProt Q68DC2 1-871)
chain: MGEGGLPPAFQLLLRACDQGDTETARRLLEPGAAEPAERGAEPEAGAEPAGAEVAGPGAAAAGAVGAPVPVDCSDEAGNTALQFAAAGGHEPLVRFLLRRGASVNSRNHYGWSALMQAARFGHVSVAHLLLDHGADVNAQNRLGASVLTVASRGGHLGVVKLLLEAGAFVDHHHPSGEQLGLGGSRDEPLDITALMAAIQHGHEAVVRLLMEWGADPNHAARTVGWSPLMLAALTGRLGVAQQLVEKGANPDHLSVLEKTAFEVALDCKHRDLVDYLDPLTTVRPKTDEEKRRPDIFHALKMGNFQLVKEIADEDPSHVNLVNGDGATPLMLAAVTGQLALVQLLVERHADVDKQDSVHGWTALMQATYHGNKEIVKYLLNQGADVTLRAKNGYTAFDLVMLLNDPDTELVRLLASVCMQVNKDKGRPSHQPPLPHSKVRQPWSIPVLPDDKGGLKSWWNRMSNRFRKLKLMQTLPRGLSSNQPLPFSDEPEPALDSTMRAAPQDKTSRSALPDAAPVTKDNGPGSTRGEKEDTLLTTMLRNGAPLTRLPSDKLKAVIPPFLPPSSFELWSSDRSRTRHNGKADPMKTALPQRASRGHPVGGGGTDTTPVRPVKFPSLPRSPASSANSGNFNHSPHSSGGSSGVGVSRHGGELLNRSGGSIDNVLSQIAAQRKKAAGLLEQKPSHRSSPVGPAPGSSPSELPASPAGGSAPVGKKLETSKRPPSGTSTTSKSTSPTLTPSPSPKGHTAESSVSSSSSHRQSKSSGGSSSGTITDEDELTGILKKLSLEKYQPIFEEQEVDMEAFLTLTDGDLKELGIKTDGSRQQILAAISELNAGKGRERQILQETIHNFHSSFESSASNTRAPGNSPCA
Regarding B1, the binding result in assay [1] is recorded as “binds”.

B2: V5-tagged NME3 (enzyme, UniProt Q13232 1-169)
chain: MICLVLTIFANLFPAACTGAHERTFLAVKPDGVQRRLVGEIVRRFERKGFKLVALKLVQASEELLREHYAELRERPFYGRLVKYMASGPVVAMVWQGLDVVRTSRALIGATNPADAPPGTIRGDFCIEVGKNLIHGSDSVESARREIALWFRADELLCWEDSAGHWLYE
Take B2: the binding result (in assay [2]; with FLAG-tagged NPHP4; with TMEM67) was “binds” each time.

Source of the values: publication PMC6166740.
